Test results as given in publication PMC10276851, “Tozorakimab (MEDI3506): an anti-IL-33 antibody that inhibits IL-33 signalling via ST2 and RAGE/EGFR to reduce inflammation and epithelial dysfunction” (Scientific Reports, 2023).
No constants are given. Whether binding was seen depends on the method and setting. Some binding calls cover weakened binding; strength is not graded here.

By UniProt entry, the sequences of proteins in these tests, tags left out. Where a name states a change or a piece, a line headed by the entry shows the natural chain unless it says otherwise. Chains listed by the source or under a name are the forms on record and can include a tag or linker.
soluble serum stimulated 2 (sST2), the truncated, soluble form of ST2 (Q01638, form named): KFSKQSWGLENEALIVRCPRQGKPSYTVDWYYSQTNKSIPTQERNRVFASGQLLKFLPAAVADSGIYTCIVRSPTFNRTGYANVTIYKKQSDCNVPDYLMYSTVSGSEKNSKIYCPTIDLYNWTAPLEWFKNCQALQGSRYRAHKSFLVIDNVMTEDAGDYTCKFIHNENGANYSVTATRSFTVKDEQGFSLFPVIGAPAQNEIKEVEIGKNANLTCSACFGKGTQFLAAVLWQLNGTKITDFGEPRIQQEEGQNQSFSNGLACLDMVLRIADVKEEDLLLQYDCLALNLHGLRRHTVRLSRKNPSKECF

Biological target: soluble serum stimulated 2 (sST2), the truncated, soluble form of ST2 (UniProt Q01638)
Assay: AlphaScreen or HTRF; homogeneous FRET HTRF receptor–ligand competition assay measuring the inhibition of the IL-33–sST2 interaction by scFvs or antibodies; both purified

binding: binds
B1: reduced interleukin-33 (IL-33^red), recombinant human, residues 112–270 (ligand, UniProt O95760 112-270, looked up)
chain: SITGISPITEYLASLSTYNDQSITFALEDESYEIYVEDLKKDEKKDKVLLSYYESQHPSNESGDGVDGKMLMVTLSPTKDFWLHANNKEHSVELHKCEKPLPDQAFFVLHNMHSNCVSFECKTDPGVFIGVKDNHLALIKVDSSENLCTENILFKLSET
notes: interleukin-33, human, residues 112–270, reduced form (free cysteines); Other assays used a biotinylated Avi-tag histidine-tag form or an N-terminally tagged form; also called wild-type IL-33; source: recombinant
